Experimental data from patent US6514734B1, “Polybifunctional reagent having a polymeric backbone and latent reactive moieties and bioactive groups” (Surmodics, Inc., priority 1997, dated 2003).

Assay: Quantitation of immobilized levels of tritium-labelled peptides on biomaterials (loading density)
Settings: nonilluminated

Row | Sequence | Peptide Reagent Control Adsorbed (on PS) [ng/cm^2] | Peptide Reagent Control Adsorbed (on PU) [ng/cm^2] | Peptide Reagent Control Adsorbed (on SR) [ng/cm^2]
1 | GRGDSPKKC [RGD reagent control, reference compound] | 66 | 23 | 65
2 | RYVVLPRPVCFEKK [F-9 reagent control, F-9 peptide not incorporated into polymer, laminin-derived, reference compound] | 57 | 31 | 75

Where no end group is shown, it is not given here.
